From publication PMC12670160, “A drug-repurposing screen of FDA- and EMA-approved drugs identifies two NF-κB inhibitors active against eumycetoma” (Journal of Antimicrobial Chemotherapy, 2025)
Counter-ions that a name gives are not always drawn. Among all 5,300 compounds or so, about 130 (2.5%) showed an effect of 50% or more. The list shows a part of the results.

What follows are compounds tested on M. mycetomatis strain mm55. Settings: primary screen, metabolic activity vs growth control; 96 h, 2 µM; inhibitor.

Row | Compound | % viability
1 | O=C(COc1cccc2c(=O)[nH]ccc12)c1ccccc1 [ONC0000914, upf1069] | 64.66%
2 | Cc1cccc(C)c1NC(=O)c1ccccc1C(=O)O [ONC0004248, ftaxilide] | 85.25%
3 | O=C(O)Cn1c(C(=O)Nc2nc(-c3ccccc3Cl)cs2)cc2ccccc21 [ONC0002717, sr27897] | 83.69%
4 | c1ccc2c(c1)CCCC2C1=NCCN1 (stereo not drawn) [ONC0000596, tetrahydrozoline hydrochloride] | 80.8%
5 | COc1cccc(CCc2ccccc2OCC(CN(C)C)OC(=O)CCC(=O)O)c1 (stereo not drawn) [ONC0000984, sarpogrelate hydrochloride] | 88.58%
6 | O=C(O[C@@H]1C[C@@H]2C[C@@H]3C[C@H](C1)N2CC3=O)c1c[nH]c2ccccc12 [ONC0005492, dolasetron] | 77.8%
7 | CC(C)[C@H](O)C(=O)N[C@@H](C)C(=O)N[C@H]1C(=O)N(C)CCc2ccccc21 [ONC0004859, semagacestat ly450139] | 106.7%
8 | CCCCN1C[C@H](O)[C@@H](O)[C@H](O)[C@H]1CO [ONC0005490, miglustat nbutyldeoxynojirimycinhcl] | 110.7%
9 | OC(CNc1ccccc1)Cn1c2ccc(Br)cc2c2cc(Br)ccc21 (stereo not drawn) [ONC0001560, p7c3] | 95.43%
10 | N[C@@H](CC(=O)O)C(=O)O [ONC0005584, lasparticacid] | 67.27%
11 | CC(C)NC(=O)COc1cccc(-c2nc(Nc3ccc4[nH]ncc4c3)c3ccccc3n2)c1 [ONC0001882, slx2119] | 46.69%
12 | Cc1ncc([N+](=O)[O-])n1C [ONC0005324, dimetridazole] | 129%
13 | CNc1ncnc2c1ncn2[C@@H]1O[C@H](CO)[C@@H](O)[C@H]1O [ONC0004528, n6methyladenosine m6a] | 76.1%
14 | O=C(c1ccc(F)cc1)C1CCN(CCCCc2ccccc2)CC1 [ONC0002480, 44fluorobenzoyl14phenylbutylpiperidine] | 58.97%
15 | CC(C)(C)C(=O)OCOC(=O)[C@@H]1N2C(=O)[C@@H](/N=C/N3CCCCCC3)[C@H]2SC1(C)C [ONC0000998, pivmecillinam hydrochloride] | 95.26%
16 | CCCCCN(C)CCC(O)(P(=O)(O)O)P(=O)(O)O [ONC0004236, ibandronate sodium] | 67.1%
17 | O=C1NCCN1c1ncc([N+](=O)[O-])s1 [ONC0002372, niridazole] | 81.15%
18 | C1N2CN3CN1CN(C2)C3 [ONC0002802, methenamine mandelamine] | 129.4%
19 | O=c1ccc2cc3ccoc3cc2o1 [ONC0003846, psoralen ficusin] | 67.57%
20 | N[C@H](C(=O)O)c1ccc(C(=O)O)c(C(=O)O)c1 [ONC0000847, 34dcpgs] | 58.51%

Row | Compound | % viability
21 | N[C@@H](CS)C(=O)O [ONC0002161, lcysteine] | 94.42%
22 | NC(N)=Nc1nc(CSCCC(N)=NS(N)(=O)=O)cs1 [ONC0003248, famotidine] | 89.34%
23 | Nc1nnc(Sc2ncc([N+](=O)[O-])s2)s1 [ONC0004235, su3327] | 89.26%
24 | C=C(C)[C@@H]1CC[C@]2(C(=O)O)CC[C@]3(C)[C@H](CC[C@@H]4[C@@]5(C)CC[C@H](O)C(C)(C)[C@@H]5CC[C@]43C)[C@@H]12 [ONC0005112, betulinic acid] | 73.76%
25 | COc1cc(-n2cnc3cc(-c4ccc(Cl)cc4)sc3c2=O)ccc1OCCN1CCCC1 [ONC0002718, gw803430] | 74.36%
26 | CCn1cc(C(=O)O)c(=O)c2cc(F)c(N3CCNCC3)nc21 [ONC0002842, enoxacin] | 91.4%
27 | CCCCCCCCC(=O)N[C@H](CN1CCCC1)[C@H](O)c1ccc2c(c1)OCCO2 [ONC0001045, genz123346 free base] | 78.97%
28 | CC(=O)OCC(=O)NCCCOc1cccc(CN2CCCCC2)c1 [ONC0004294, roxatidine acetate hydrochloride] | 65.07%
29 | C[C@H](NCc1ccc(OCc2cccc(F)c2)cc1)C(N)=O [ONC0004903, safinamide mesylate fce28073] | 91.48%
30 | CN1C(=O)COc2c(C(=O)NC3CN4CCC3CC4)cc(Cl)cc21 (stereo not drawn) [ONC0004557, azasetron hcl] | 67.31%
31 | O=c1ccc2c(OCCCCOc3ccccc3)c3ccoc3cc2o1 [ONC0000770, pap1] | 62.21%
32 | O=CN1CCC(C(=O)NCCN2CCC(=C3c4ccccc4C=Cc4ccccc43)CC2)CC1 [ONC0001856, at1015] | 84.57%
33 | O=C1CCC[C@@H]2[C@@H]3CCCN4CCC[C@H](CN12)[C@@H]34 [ONC0004745, matrine matrine] | 117%
34 | O=C1OC(c2ccc(O)cc2)(c2ccc(O)cc2)c2ccccc21 [ONC0000601, phenolphthalein] | 78.25%
35 | COc1cc(C(=S)N2CCOCC2)ccc1O [ONC0004297, vanitiolide] | 83.35%
36 | C[C@H](N)Cn1ccc2cc(F)c(Cl)cc21 [ONC0001710, ro600175 fumarate] | 62.47%
37 | CC1(C)S[C@@H]2[C@H](N)C(=O)N2[C@H]1C(=O)O [ONC0005344, 6aminopenicillanicacid] | 129.7%
38 | CC(C)=CCOc1ccc(/C=C/C(=O)c2ccc(OCC=C(C)C)cc2OCC(=O)O)cc1 [ONC0005300, sofalcone] | 120.9%
39 | C[C@@H]1CN(CCCn2c3ccccc3c3ccccc32)C[C@H](C)N1 [ONC0001422, rimcazole] | 54.11%
40 | Oc1ccc(C2CNCCc3c2cc(O)c(O)c3Cl)cc1 (stereo not drawn) [ONC0003932, fenoldopam mesylate] | 82.27%

Row | Compound | % viability
41 | CC(C(=O)O)c1cccc(Oc2ccccc2)c1 (stereo not drawn) [ONC0000663, fenoprofen] | 128.7%
42 | N#C/C(=C\c1ccc(O)c(O)c1)C(=O)Nc1ccccc1 [ONC0000100, tyrphostinag494] | 92.12%
43 | CC(C)(C)CC1NC(C(=O)NC2CCC(O)CC2)C(c2cccc(Cl)c2F)C12C(=O)Nc1cc(Cl)ccc12 (stereo not drawn) [ONC0004366, mi773 sar405838] | 131.2%
44 | CN1Cc2c(C(=O)OC(C)(C)C)ncn2-c2ccsc2C1=O [ONC0000228, ro194605] | 69.22%
45 | CCCc1ncc(C[n+]2ccccc2C)c(N)n1 [ONC0003221, amprolium] | 103.9%
46 | O=C1NC(=O)/C(=C/c2ccc3nccc(-c4ccncc4)c3c2)S1 [ONC0004984, gsk1059615] | 106.4%
47 | CC(O)c1cc(C(=O)N[C@@H](C)Cn2ccc(-c3ccc(C#N)c(Cl)c3)n2)[nH]n1 (stereo partly drawn) [ONC0005059, odm201] | 86.36%
48 | O=C1NC(=O)C(c2ccccc2[N+](=O)[O-])=C1Nc1ccc(O)c(Cl)c1 [ONC0001875, sb415286] | 59.4%
49 | CO/N=C(\C(=O)N[C@@H]1C(=O)N2C(C(=O)O)=CCS[C@H]12)c1csc(N)n1 [ONC0001333, ceftizoxime sodium] | 83.5%
50 | CNc1cc2c(Nc3cccc(Br)c3)ncnc2cn1 [ONC0003138, pd158780] | 68.72%
51 | CCCCCCCCCCCCCCCCCCOC[C@H](COP(=O)(O)OCC[N+](C)(C)C)OC [ONC0005596, 1ooctadecyl2omethylsnglycero3phosphorylcholine] | 69.87%
52 | CC(Oc1ccc(O)cc1)(P(=O)(O)O)P(=O)(O)O [ONC0003523, l690330] | 126.5%
53 | CO[C@H]1/C=C/O[C@@]2(C)Oc3c(C)c(O)c4c(O)c(c(/C=N/N5CCN(C)CC5)c(O)c4c3C2=O)NC(=O)/C(C)=C\C=C\[C@H](C)[C@H](O)[C@@H](C)[C@@H](O)[C@@H](C)[C@H](OC(C)=O)[C@@H]1C [ONC0003357, rifampin] | 107.5%
54 | O=C(NCc1ccc(OC(F)(F)F)cc1)C1c2ccccc2C(=O)N1C1CCOCC1 (stereo not drawn) [ONC0000046, nav26] | 135.4%
55 | C/C(=C\c1csc(C)n1)[C@H]1C[C@@H]2O[C@]2(C)CCC[C@H](C)[C@H](O)[C@@H](C)C(=O)C(C)(C)[C@H](O)CC(=O)O1 [ONC0004615, patupilone epo906 epothilone b] | 75.3%
56 | Cc1c(Cl)cccc1Nc1ccccc1C(=O)O [ONC0000617, tolfenamic acid] | 109.8%
57 | CC(C)C[C@@H](N)C(=O)N[C@H]1C(=O)N[C@@H](CC(N)=O)C(=O)N[C@H]2C(=O)N[C@H]3C(=O)N[C@H](C(=O)N[C@H](C(=O)O)c4cc(O)cc(O)c4-c4cc3ccc4O)[C@H](O)c3ccc(c(Cl)c3)Oc3cc2cc(c3O[C@@H]2O[C@H](CO)[C@@H](O)[C@H](O)[C@H]2O[C@H]2C[C@](C)(N)[C@H](O)[C@H](C)O2)Oc2ccc(cc2Cl)[C@H]1O [ONC0002123, norvancomycin hydrochloride] | 86.02%
58 | C[C@@H]1CC[C@H]2C(C)(C)[C@H]3C[C@@]12CC[C@@]3(C)O [ONC0005418, cedrol] | 83.67%
59 | O=C(CCCCCCC(=O)Nc1cccnc1)NO [ONC0003837, pyroxamide] | 69.09%
60 | O=C(O)c1ccccc1-c1c2cc(I)c(=O)c(I)c-2oc2c(I)c(O)c(I)cc12 [ONC0004049, erythrosine sodium] | 105.2%

Two entries from above, as labelled records:
CC(Oc1ccc(O)cc1)(P(=O)(O)O)P(=O)(O)O [ONC0003523, l690330]
  % viability: 126.5%
O=C(CCCCCCC(=O)Nc1cccnc1)NO [ONC0003837, pyroxamide]
  % viability: 69.09%
